In patent US20160106770A1, “EPIGENETIC MECHANISMS OF ANTI-FIBROTIC ACTION FOR THE LIVER” (University of Southern California, priority 2011, published 2016):
Some of these results come from one statement about several compounds together.

Tested on: culture-activated rat primary HSCs
Assay: Real time quantitative PCR of cultured HSCs
Format: cell-based
Conditions: 270 μM, day 7 HSCs
Text: HSCs were isolated from normal male Wistar rats, C57B1/6 and Coll-GFP mice by in situ digestion of the liver and arabinogalactan gradient ultracentrifugation by the Non-Parenchymal Liver Cell Core of the Southern California Research Center for ALPD and Cirrhosis as described previously in Cheng J H et al,. Wnt antagonism inhibits hepatic stellate cell activation and liver fibrosis, Am J Physiol Gastrointest Liver Physiol, 2007 Nov 15; and Zhu N L et al., The […] pathway causes epigenetic peroxisome proliferator-activated receptor gamma repression in hepatic stellate cells, J Biol Chem, 2010 Oct 1; 285(40):30463-30471, both of which are incorporated by reference herein in their entirety as though fully set forth. The purity of the cells, as determined by phase contrast microscopy and ultraviolet-excited fluorescence microscopy, exceeded 96%, and the viability as determined by trypan blue exclusion exceeded 94%. In vitro activation of HSCs was achieved by culturing rat HSCs in Dulbecco's modified Eagle's medium (DMEM) with 1.0 g/liter glucose, 10% fetal bovine serum and 1% antibiotics on plastic dish for 3, 5 or 7 days. Culture-activated rat primary HSCs were treated with the YGW or starch (control) aqueous extract at 25% (v/v). To obtain the extract, the YGW or starch powder (provided by S.P. Pharmaceutics Inc.) was suspended in DMEM at the concentration of 35 mg/ml, mixed thoroughly with a vortex for 5 min, and centrifuged at ×150 g for 30 min to collect the supernatant. This supernatant was designated as 100% extract and used after filter-sterilization. RA and BC (Sigma Chemical Co) were dissolved in DMSO and tested at the concentration of […]. Total RNA was extracted from the cells using TRIzol reagent (Invitrogen) or RNeasy Mini kit (Qiagen). One microgram of RNA was reverse transcribed to cDNA by using SuperScript III First-Strand Synthesis System (Invitrogen) and amplified by 40 cycles using primers listed below and the SYBR Green PCR Master mix reagent (AB Applied Biosystem). Each threshold cycle (Ct) value was first normalized to the 36B4 Ct value of a sample and subsequently compared between the treatment and control samples.

SMILES	down-regulation of α1(I) procollagen mRNA	induction of PPARγ mRNA
O=C(O)[C@H]1O[C@@H](Oc2cc3oc(-c4ccccc4)cc(=O)c3c(O)c2O)[C@H](O)[C@@H](O)[C@@H]1O [BC, baicalin]	2˜3 fold	3˜4 fold
O=C(/C=C/c1ccc(O)c(O)c1)O[C@H](Cc1ccc(O)c(O)c1)C(=O)O [RA, rosmarinic acid]	2˜3 fold	3˜4 fold
